In assay [1] the target is T1, RpoTp fused to the N-terminal portion (YN) of the Venus protein (Arabidopsis thaliana) (UniProt O24600).
T1 sequence: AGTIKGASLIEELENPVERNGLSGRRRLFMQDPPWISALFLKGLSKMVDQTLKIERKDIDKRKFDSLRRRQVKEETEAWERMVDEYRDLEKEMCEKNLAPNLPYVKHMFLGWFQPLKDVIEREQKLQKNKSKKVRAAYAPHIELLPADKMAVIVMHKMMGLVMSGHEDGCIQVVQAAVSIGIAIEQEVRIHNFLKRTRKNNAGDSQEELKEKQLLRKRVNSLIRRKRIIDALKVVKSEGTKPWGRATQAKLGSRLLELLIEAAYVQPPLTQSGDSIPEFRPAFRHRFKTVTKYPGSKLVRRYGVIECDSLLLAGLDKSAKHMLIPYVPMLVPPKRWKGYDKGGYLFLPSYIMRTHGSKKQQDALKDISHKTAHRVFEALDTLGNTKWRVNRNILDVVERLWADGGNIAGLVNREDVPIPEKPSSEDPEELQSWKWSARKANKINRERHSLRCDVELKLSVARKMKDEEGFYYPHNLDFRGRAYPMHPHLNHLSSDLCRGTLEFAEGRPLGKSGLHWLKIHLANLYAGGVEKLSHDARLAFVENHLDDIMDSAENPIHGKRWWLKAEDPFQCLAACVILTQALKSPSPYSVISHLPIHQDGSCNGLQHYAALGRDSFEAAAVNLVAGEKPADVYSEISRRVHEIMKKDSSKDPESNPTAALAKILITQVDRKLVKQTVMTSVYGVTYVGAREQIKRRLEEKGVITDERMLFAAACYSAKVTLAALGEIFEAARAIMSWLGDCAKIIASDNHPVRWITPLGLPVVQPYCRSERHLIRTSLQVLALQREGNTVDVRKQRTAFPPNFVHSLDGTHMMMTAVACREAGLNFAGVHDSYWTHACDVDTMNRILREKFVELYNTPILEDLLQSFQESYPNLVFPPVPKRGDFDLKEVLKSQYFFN
In words: split reporter.

The target in assay [2] is T2, GUN1-GFP (35S::GUN1-GFP, expressed in Arabidopsis cotyledons) (Arabidopsis thaliana) (UniProt Q9SIC9).
T2 sequence: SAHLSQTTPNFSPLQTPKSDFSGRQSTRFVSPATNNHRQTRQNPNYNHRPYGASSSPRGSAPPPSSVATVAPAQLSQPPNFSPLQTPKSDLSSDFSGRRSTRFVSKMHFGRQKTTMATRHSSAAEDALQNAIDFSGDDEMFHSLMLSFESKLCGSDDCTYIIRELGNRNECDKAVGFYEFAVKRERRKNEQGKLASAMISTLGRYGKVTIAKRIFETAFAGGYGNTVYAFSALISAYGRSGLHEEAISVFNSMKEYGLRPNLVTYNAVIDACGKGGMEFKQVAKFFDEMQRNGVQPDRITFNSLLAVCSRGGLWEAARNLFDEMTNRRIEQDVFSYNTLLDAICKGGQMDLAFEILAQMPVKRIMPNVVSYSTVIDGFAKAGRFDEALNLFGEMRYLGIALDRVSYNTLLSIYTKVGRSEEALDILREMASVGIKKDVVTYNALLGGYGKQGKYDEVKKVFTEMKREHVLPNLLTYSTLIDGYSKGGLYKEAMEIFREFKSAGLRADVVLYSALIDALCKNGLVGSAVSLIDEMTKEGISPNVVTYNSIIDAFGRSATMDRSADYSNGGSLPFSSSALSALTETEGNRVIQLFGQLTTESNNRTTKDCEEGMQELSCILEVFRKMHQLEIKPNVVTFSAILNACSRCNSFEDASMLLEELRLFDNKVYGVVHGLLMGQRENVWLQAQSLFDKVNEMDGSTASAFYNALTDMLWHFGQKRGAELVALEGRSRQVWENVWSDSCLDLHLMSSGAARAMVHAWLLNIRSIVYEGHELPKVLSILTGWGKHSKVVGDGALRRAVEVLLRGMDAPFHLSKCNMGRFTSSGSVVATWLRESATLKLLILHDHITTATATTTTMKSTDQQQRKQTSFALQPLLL
In words: co-IP.

Assay [3] deals with T3, GUN1-GFP protein chimera (transiently expressed in tobacco leaves) (Arabidopsis thaliana) (UniProt Q9SIC9).
T3 sequence: T2 sequence
Briefly: co-IP.

Assay [4] concerns the target T4, GUN1 fused to the N-terminal portion (YN) of the Venus protein (Arabidopsis thaliana) (UniProt Q9SIC9).
T4 sequence: T2 sequence
Briefly: split reporter.

The target of assay [5] is T5, GUN1 fused to the C-terminal portion (YC) of the Venus protein (Arabidopsis thaliana) (UniProt Q9SIC9).
T5 sequence: T2 sequence
Briefly: split reporter.

No constants are given. Whether binding was seen depends on the method and setting. Binding seen in cells or lysates may run through a third protein. Some binding calls cover weakened binding; strength is not graded here. Sequences can lack the tags named with a protein.

B1: CRP1 fused to the C-terminal portion (YC) of the Venus protein (protein, UniProt Q8L844 55-709)
chain: SSYFSSWNGLDTNEEEDNEFSSEVHRRYDFSPLLKFLSRFGPVELALDSESESEASPESLNPVEFDLVESYRAVPAPYWHSLIKSLTSSTSSLGLAYAVVSWLQKHNLCFSYELLYSILIHALGRSEKLYEAFLLSQKQTLTPLTYNALIGACARNNDIEKALNLIAKMRQDGYQSDFVNYSLVIQSLTRSNKIDSVMLLRLYKEIERDKLELDVQLVNDIIMGFAKSGDPSKALQLLGMAQATGLSAKTATLVSIISALADSGRTLEAEALFEELRQSGIKPRTRAYNALLKGYVKTGPLKDAESMVSEMEKRGVSPDEHTYSLLIDAYVNAGRWESARIVLKEMEAGDVQPNSFVFSRLLAGFRDRGEWQKTFQVLKEMKSIGVKPDRQFYNVVIDTFGKFNCLDHAMTTFDRMLSEGIEPDRVTWNTLIDCHCKHGRHIVAEEMFEAMERRGCLPCATTYNIMINSYGDQERWDDMKRLLGKMKSQGILPNVVTHTTLVDVYGKSGRFNDAIECLEEMKSVGLKPSSTMYNALINAYAQRGLSEQAVNAFRVMTSDGLKPSLLALNSLINAFGEDRRDAEAFAVLQYMKENGVKPDVVTYTTLMKALIRVDKFQKVPVVYEEMIMSGCKPDRKARSMLRSALRYMKQTLRAS
Turning to B1, the binding entry in assay [1] is “no binding”.

B2: RpoTp, nuclear-encoded plastid RNA polymerase (NEP), endogenous (enzyme, UniProt O24600 96-993)
chain: T1 sequence
Consider B2, for which the binding entry in assay [2] is recorded as “binds”.

B3: RpoTp-RFP protein chimera (transiently expressed in tobacco leaves) (enzyme, UniProt O24600 96-993)
chain: T1 sequence
Take B3: in assay [3], the binding result is “binds”.

B4: RpoTp fused to the C-terminal portion (YC) of the Venus protein (enzyme, UniProt O24600 96-993)
chain: T1 sequence
Regarding B4, in assay [4], the binding result is reported as “binds”.

B5: RpoTp fused to the N-terminal portion (YN) of the Venus protein (enzyme, UniProt O24600 96-993)
chain: T1 sequence
In the case of B5, the binding entry in assay [5] is on record as “binds”.

Source of the values: doi:10.1101/724518.
